PubChem BioAssay AID540276 (National Center for Advancing Translational Sciences (NCATS), 2011)
Where “and” joins values, the source holds several entries; their conditions need not be identical. Identical values can stand only once. Among all 300,000 compounds or so, about 5,400 (1.8%) were called active. Inconclusive results, whose numbers are uncertain, are shown with a selection of clear calls. The call rests on the fitted dose curve; tested in HEK293 cells. Potencies beside an inconclusive call are fits to weak or partial responses and may not hold up.

Experiment: qHTS for inhibitors of binding or entry into cells for Marburg Virus
Conditions: Marburg virus pseudotyped entry inhibition, cell reporter; series mostly up to 37.8 µM
Potency means the concentration at half of the fitted maximal effect.

| SMILES | Potency |
| --- | --- |
| CC(C)(C)n1ncc2c(=O)n(CC(=O)OCc3ccccc3)cnc21 | inconclusive: 7.08 µM [inhibitor, partial curve, poor fit] |
| COc1ccc2nc(NC(=O)C3CCCN(S(=O)(=O)c4cccs4)C3)sc2c1 (stereo unspecified) | inconclusive: 12.6 µM [inhibitor, partial curve, poor fit] |
| CCOc1ccc(CN2C(=O)c3ccccc3Sc3ccc(C(=O)NCc4ccc5c(c4)OCO5)cc32)cc1 | inconclusive: 7.08 µM [inhibitor, full curve, poor fit] |
| CC(=O)Nc1ccc(-c2csc(NCc3ccco3)n2)cc1 | inconclusive: 3.98 µM [activator, single point] |
| COc1ccc(CN2CCn3ncc(C(=O)Nc4ccc(Cl)cc4Cl)c3C2=O)cc1 | inconclusive: 3.98 µM [activator, single point] |
| O=C(c1cc([N+](=O)[O-])ccc1N1CCOCC1)N1CCCCC1 | inactive |
| CCOC(=O)C1CCN(C(=O)CSc2c3c(nc4ccccc24)CCC3)CC1 | inactive |
| COc1cc(OC)cc(C(=O)NC(=S)NCc2ccco2)c1 | inactive |
| COc1ccc2c(c1)C(C)CC(C)(C)N2C(=O)CSc1nc2ccccc2s1 (stereo unspecified) | inconclusive: 17.8 µM [inhibitor, partial curve, poor fit] |
| Cc1nc(Cc2nnc(SCC(=O)N(C)c3ccccc3)o2)cs1 | inactive |
| Nc1cc(C(=O)O)c(Oc2ccc(Cl)cc2Cl)cc1C(=O)O | inconclusive: 2.91 µM [activator, single point] |
| O=c1[nH]c(C2CCN(S(=O)(=O)c3ccc(S(=O)(=O)NC4CC4)cc3)CC2)nc2c1nnn2Cc1ccc(F)cc1 | inconclusive: 32.6 µM [inhibitor, partial curve, poor fit] |
| O=C(c1ccc(-c2ccccc2)c(F)c1)C1CCCN(CCO)C1 (stereo unspecified) | inconclusive: 22.4 µM [inhibitor, single point] |
| CC(C)NC(=O)NC(=O)COC(=O)c1ccccc1Oc1ccccc1 | active: 11.2 µM |
| CC(=O)N1CCCC1c1nc2ccccc2n1Cc1c(F)cccc1Cl (stereo unspecified) | inactive |
| COc1ccc(N(CC(=O)NC2CC3CCC2C3)S(=O)(=O)c2ccccc2)cc1OC (stereo unspecified) | inconclusive: 7.08 µM [inhibitor, partial curve] |
| CN1CCN(C(=S)Nc2ccc(Oc3ccccc3)cc2)CC1 | inactive |
| Cc1cccc(-n2ncc3c(N4CCOCC4)ncnc32)c1 | active: 3.66 µM |
| CC(=O)c1ccc(NC(=O)CN2C(=O)/C(=C/C(C)=C/c3ccccc3)SC2=S)cc1 | inconclusive: 0.562 µM [activator, full curve, poor fit] |
| COc1ccc(-c2nc(N)ncc2-c2csc(C)n2)c(O)c1 | inconclusive: 0.0046 µM [activator, full curve, poor fit] |
| Cc1nc(S(=O)(=O)c2ccc(Cl)cc2)c(NCc2ccccc2)o1 | inconclusive: 5.62 µM [inhibitor, single point] |
| CCOC(=O)N1CCN(C(=O)C(C)N(c2ccc(Oc3ccccc3)cc2)S(C)(=O)=O)CC1 (stereo unspecified) | inactive |

| SMILES | Potency |
| --- | --- |
| O=c1[nH]c(CN2CCN(C/C=C/c3ccccc3)CC2)nc2ccccc12 | inconclusive: 9.2 µM [inhibitor, partial curve] |
| NC(=S)N=Nc1c(O)n(CCCl)c2ccc(Cl)cc12 | inconclusive: 17.8 µM [inhibitor, single point] |
| CSc1nc2ccc(NC(=O)c3ccccn3)cc2s1 | inconclusive: 8.91 µM [inhibitor, partial curve, poor fit] |
| CCOC(=O)c1c(-c2ccccc2)oc2ccc(OCC(O)CNCCN(C)C)cc12 (stereo unspecified) | inconclusive: 17.8 µM [inhibitor, partial curve, poor fit] |
| CC1=C(C(=O)Nc2cccc(C(=O)NC(C)C)c2)SCCO1 | inactive |
| COc1ccc(CCn2c(SCC(=O)Nc3cc(C)on3)nc3ccsc3c2=O)cc1OC | inconclusive: 29.1 µM [inhibitor, single point] |
| O=C(Cn1cnc2cc([N+](=O)[O-])ccc2c1=O)NCCc1ccc(Cl)cc1 | inactive |
| Cc1cccc(N2CCN(c3nnnn3-c3ccccc3)CC2C)c1 (stereo unspecified) | inconclusive: 11.2 µM [inhibitor, partial curve, poor fit] |
| C=CCOc1c(Br)cc(CNc2ccc(NC(=O)CCC)cc2)cc1OCC | inconclusive: 10 µM [inhibitor, partial curve, poor fit] |
| N#C/C(=C\c1cccc(NC(=O)c2ccccc2Cl)c1)C(=O)NCCc1ccccc1 | active: 11.2 µM |
| CC(C)OCCCNC(=O)C1CCC(=O)N1C(C)C (stereo unspecified) | inconclusive: 29.1 µM [activator, single point] |
| COc1ccc(NC(=O)/C=C/c2ccc(Cl)cc2)cc1 | inconclusive: 0.112 µM [activator, full curve, poor fit] |
| Cc1ccc(C(=O)OCC(=O)N2CCc3ccccc32)cc1 | inactive |
| CCCC(O)(c1ccc(CC)cc1)C(CN1CCOCC1)c1ccccc1 (stereo unspecified) | inconclusive: 22.4 µM [inhibitor, partial curve, poor fit] |
| Cc1ccc(S(=O)(=O)N/N=C\c2cc([N+](=O)[O-])ccc2Cl)cc1 | inconclusive: 32.6 µM [inhibitor, single point] |
| O=C(CN1CCN(c2ncc(C(F)(F)F)cc2Cl)CC1)N1CCN(c2ncc(C(F)(F)F)cc2Cl)CC1 | inconclusive: 12.6 µM [inhibitor, partial curve, poor fit] |
| COC(=O)c1ccc(COc2ccccc2/C=C(\C#N)C(=O)Nc2ccc(C)cc2C)cc1 | inconclusive: 1 µM [inhibitor, full curve, poor fit] |
| Cc1ccc(-c2noc(CCC(=O)NCc3ccco3)n2)cc1 | inactive |
| COc1ccc(C(=O)c2cc(OC)c(OC)c(OC)c2)cc1OC | inconclusive: 3.98 µM [inhibitor, full curve, poor fit] |
| Cc1cnc(NC(=O)CN(C)S(=O)(=O)c2ccc(Cl)cc2)s1 | inconclusive: 3.16 µM [inhibitor, full curve, poor fit] |
| O=C(CC1C(=O)NCCN1CC1CCCCC1)NCc1ccc(F)cc1 (stereo unspecified) | inconclusive: 25.1 µM [inhibitor, partial curve, poor fit] |
| CC1CCCN(C(=O)COc2ccc(Nc3ccccc3)cc2)C1 (stereo unspecified) | inconclusive: 35.5 µM [inhibitor, single point] |

| SMILES | Potency |
| --- | --- |
| Cc1ccc(N(CC(=O)N2CCc3ccccc32)C2=NC(=O)CS2)cc1 | inactive |
| CCOC(=O)C1=C(CN2c3ccccc3CC2C)NC(=O)NC1c1ccccc1 (stereo unspecified) | inconclusive: 35.5 µM [inhibitor, single point] |
| O=C(N/N=C/c1cc([N+](=O)[O-])ccc1O)C1CCCCC1 | inconclusive: 14.1 µM [inhibitor, single point] |
| C=CCc1cccc(/C=C/c2cc(=O)c3ccccc3[nH]2)c1O | inconclusive: 1.26 µM [inhibitor, full curve, poor fit] |
| Cc1cccc(NC(=O)C2CCCN(S(=O)(=O)c3ccc(-n4cnnn4)cc3)C2)c1 (stereo unspecified) | inconclusive: 4.47 µM [inhibitor, full curve, poor fit] |
| C[C@@H](/C=C\c1cccc(Oc2ccc(F)cc2)c1)N(O)C(N)=O | inconclusive: 0.562 µM [inhibitor, single point] |
| CNC(=O)c1cc2c(cn1)[nH]c1ccccc12 | inconclusive: 23.1 µM [activator, single point] and inconclusive: 316 nM [activator, full curve, poor fit] |
| Cc1ccc(-c2cc(C(=O)Nc3cc(C)ccc3O)no2)cc1 | inconclusive: 8.91 µM [activator, partial curve] |
| COC(=O)c1ccc(C2C(C#N)=C(N)Oc3cc(N)ccc32)cc1 (stereo unspecified) | inconclusive: 35.5 µM [inhibitor, single point] |
| CCC(C)C(=O)Nc1nc2ccc(OC)cc2s1 (stereo unspecified) | inconclusive: 0.562 µM [activator, partial curve, poor fit] |
| O=C(C1=C[C@@H]2[C@H]3C(=O)N(c4ccccc4)C(=O)[C@H]3[C@@H](C(=O)c3ccc(Cl)cc3)N2C=C1)c1ccccc1 | inactive |
| O=C(NCCc1ccccc1)C1CCCN1C(=O)NCc1ccccc1 (stereo unspecified) | inconclusive: 1.26 µM [inhibitor, single point] |
| COc1ccc(-n2ncc3c(N4CCN(c5cc(C)ccc5C)CC4)ncnc32)cc1 | inactive |
| O=C1NC(=O)C(CCc2ccncc2)(CCc2ccncc2)C(=O)N1CCc1ccccc1 | inconclusive: 2.91 µM [inhibitor, full curve] |
| Cc1cc(F)ccc1Nc1nc2ccc(Cl)cc2n2cnnc12 | inactive |
| CCN(CC)CC(=O)Nc1ccc2c(c1)N(C(=O)CN(CC)CC)c1ccccc1CC2 | active: 8.2 µM |
| Cc1ccc(-c2cn3c(=O)cc(C)[nH]c3n2)cc1 | inactive |
| O=C(CSc1ncnc2c1cnn2-c1ccc(Cl)cc1)NCc1ccc2c(c1)OCO2 | inconclusive: 7.08 µM [activator, full curve, poor fit] |
| CN(C(=O)c1ccco1)c1nnc(C23CC4CC(CC(C4)C2)C3)s1 | inconclusive: 4.11 µM [activator, full curve, poor fit] |
| COc1ccc(C(=O)NCC(=O)N/N=C/C(C)=C/c2ccco2)cc1OC | inconclusive: 35.5 µM [inhibitor, single point] |
| O=C1[C@@H]2CC=C(Cl)C[C@H]2C(=O)N1CNc1ccccn1 | inactive |
| O=C1N/C(=C\c2ccc(N3CCOCC3)c(F)c2)C(=O)N1Cc1ccccc1 | inconclusive: 32.6 µM [inhibitor, single point] |
